How the values were obtained:
[1] = tested on: breast cancer; details: cited from earlier work
[2] = general procedure: Fmoc solid-phase peptide synthesis; Rink amide resin; details: whole synthesis, scale of the general procedure Severity micromoles of resin (so in the source), 210 μmol of each

| Compound | sensitivity for small tumors <1 cm [1] [%] | sensitivity for tumors in-situ [1] [%] | final purity (method not given) [2] |
| --- | --- | --- | --- |
| OC[C@H]1O[C@@H](O)[C@H]([18F])[C@@H](O)[C@@H]1O [[^18F]FDG, 2-[^18F]fluoro-2-deoxy-D-glucose] | 57 | 25 | – |
| DOTA-Ahx-(D-Lys^6-GnRH1) | – | – | greater than 90% purity |
